Record: PubChem BioAssay AID504744 (Drosophila RNAi Screening Center, 2011)
The deposit covers about 23,000 reagents; shown is an unselected part of those that have a named target and a result. Of all reagents, 98 (0.43%) were called active. 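Only hit calls are given; the phospho-dAkt signals, z-scores and hit direction were not deposited.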 Reagent sequences are not shown.

- Assay: 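Uncover factors, including feedback loops, that control dAkt activation in fly cells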 (primary screen)
- Cell system: Drosophila Kc167 cells
- Reagent: long dsRNA against Drosophila genes, 250 ng dsRNA per well of a 384-well plate
- Timing: 3 days of knock-down, then overnight serum-free starvation before stimulation
- Treatment: bovine insulin at 387 nM for 10 minutes after 12 h without serum
- Measurement: 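In-cell antibody fluorescence for phospho-dAkt in each well over DNA-dye signal, with log2 residuals expressed as z-scores adjusted for cell count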
- Hit rule: 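Under insulin, a gene counts as a hit if the average z-score of two replicates lies above 2.5 or below -2.5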

target,amplicon,call
Muc4B,DRSC18062,inactive
Muc4B,DRSC18063,inactive
Tomosyn,DRSC19365,inactive
Tomosyn,DRSC19692,inactive
Tomosyn,DRSC19782,inactive
Tomosyn,DRSC19842,inactive
CG16953,DRSC15167,inactive
c-cup,DRSC00458,inactive
colt,DRSC00808,inactive
Alms1a,DRSC18558,inactive
cindr,DRSC14126,inactive
cindr,DRSC14298,inactive
CG30043,DRSC06285,inactive
ro,DRSC17046,inactive
CG42699,DRSC18076,inactive
CG42699,DRSC18341,inactive
CG15729 (retired record),DRSC19695,inactive
CG8517,DRSC07205,inactive
lig,DRSC07246,inactive
lig,DRSC07247,inactive
bsd,DRSC05953,inactive
CG12818,DRSC14556,inactive
nrv1,DRSC03382,active
CG13690,DRSC00359,inactive
CG41020 (retired record),DRSC20866,inactive
Nrd1,DRSC19830,inactive
CG14931,DRSC02413,inactive
CG31872,DRSC02568,inactive
CG31872,DRSC02572,inactive
CG4080,DRSC10398,inactive
Catsup,DRSC03288,inactive
CG13895,DRSC08365,inactive
CG15130,DRSC02430,inactive
Rala,DRSC18703,inactive
CG2006,DRSC15412,inactive
CG5561,DRSC00688,inactive
CG15571,DRSC18059,inactive
TotB,DRSC15842,inactive
CG13066,DRSC09949,inactive
Obp57a,DRSC22047,inactive
Dph4,DRSC12318,inactive
CG15286,DRSC01907,inactive
crol,DRSC03514,inactive
crol,DRSC21348,inactive
Syx13,DRSC09836,inactive
Kdm5,DRSC03133,inactive
Mvb12,DRSC20027,inactive
PDCD-5,DRSC09955,inactive
pr,DRSC03596,inactive
CG11269,DRSC04094,inactive
CG10874,DRSC00297,inactive
CG32071,DRSC22298,inactive
CG12377 (retired record),DRSC11671,inactive
CG12377 (retired record),DRSC11672,inactive
RpS5a,DRSC20282,inactive
drd,DRSC19343,inactive
drd,DRSC21466,inactive
Mettl2,DRSC08398,inactive
CG17193,DRSC15187,inactive
CG33172,DRSC21793,inactive
RnrL,DRSC03413,inactive
INPP5E,DRSC09723,inactive
CG7329,DRSC03046,inactive
Naa35,DRSC04447,inactive
ssp7,DRSC18878,inactive
Mur11Da,DRSC18960,inactive
CG6178,DRSC15984,inactive
sut3,DRSC07702,inactive
axed,DRSC08833,inactive
axed,DRSC10982,inactive
Ir52a,DRSC06262,inactive
CG1648,DRSC06610,inactive
t-Grip128,DRSC07853,inactive
CG14339,DRSC00369,inactive
CG32079,DRSC22636,inactive

Hits, among the entries above:
target,amplicon,call
nrv1,DRSC03382,active

The list goes on.
target,amplicon,call
Nup58,DRSC16235,inactive
CG18449,DRSC06754,inactive
CG14984,DRSC08442,inactive
Glut1,DRSC07927,inactive
Glut1,DRSC08662,inactive
spn-B,DRSC17063,inactive
CG15406,DRSC00420,inactive
CG17271,DRSC15210,inactive
CG17271,DRSC22629,inactive
Gip,DRSC18667,inactive
CG8950,DRSC07300,inactive
CG32628 (retired record),DRSC19405,inactive
mRpS25,DRSC19598,inactive
CG40498,DRSC07786,inactive
CG2962,DRSC18247,inactive
CG13801,DRSC08335,inactive
cona,DRSC16281,inactive
Gbp2,DRSC06069,inactive
CG9667,DRSC16535,inactive
qin,DRSC14782,inactive
Cp36,DRSC18452,inactive
Naxd,DRSC09722,inactive
CG30484,DRSC05457,inactive
Ssb-c31a,DRSC03443,inactive
CG9673,DRSC20202,inactive
Ance-3,DRSC02648,inactive
Ance-3,DRSC02649,inactive
mrt,DRSC15484,inactive
Rbsn-5,DRSC03094,inactive
CG7058,DRSC20021,inactive
Dhc36C,DRSC03315,inactive
CG17575,DRSC06682,inactive
CG32944,DRSC12138,inactive
CG32944,DRSC12341,inactive
CG13365,DRSC17899,inactive
Galphao,DRSC07430,inactive
Dlip1,DRSC18460,inactive
Zip102B,DRSC17155,inactive
asf1,DRSC11324,inactive
CG10344,DRSC04066,inactive
CG18539,DRSC06766,inactive
Dcr-1,DRSC15646,inactive
CG5645,DRSC10532,inactive
CG14294,DRSC14774,inactive
Gpo2,DRSC06822,inactive
Yeti,DRSC21138,inactive
CG30116,DRSC05935,inactive
CG30116,DRSC06685,inactive
mahj,DRSC04053,inactive
CG5555,DRSC15834,inactive
Acyp,DRSC01861,inactive
mthl10,DRSC08504,inactive
mthl10,DRSC08505,inactive
CG9498,DRSC03235,inactive
ranshi,DRSC16564,inactive
spict,DRSC02157,inactive
CG2698,DRSC15447,inactive
tweek,DRSC02433,inactive
tweek,DRSC02434,inactive
tweek,DRSC02785,inactive
CG7655,DRSC16275,inactive
CG11865,DRSC01872,inactive
Suv3,DRSC12335,inactive
Ercc1,DRSC07424,inactive
FAM21,DRSC06623,inactive
ptc,DRSC05117,inactive
ptc,DRSC07669,inactive
CG12091,DRSC08251,inactive
ste24b,DRSC07315,inactive
CG32812,DRSC18478,inactive
AnxB9,DRSC14111,inactive
Dred,DRSC11057,inactive
Dred,DRSC11059,inactive
IA-2,DRSC00304,inactive
IA-2,DRSC00652,inactive
CG17683,DRSC21160,inactive
Fpps,DRSC07429,inactive
CG1138,DRSC12530,inactive
CG14106,DRSC10109,inactive
CG6428,DRSC18402,inactive
rin,DRSC17045,inactive
CG14591,DRSC04868,inactive
